Results: patent EP2229935A1, “Peptide derivatives or pharmaceutically acceptable salts thereof, method for producing the same, use of said derivatives and pharmaceutical composition” (Nebolsin, Vladimir Evgenievich, priority 1997, dated 1999)
For at least one compound, name, drawing or mass did not settle the structure. Marks after values point to notes of the source that are not given here.

Test system: mongrel male rats
Assay: Hypolipidemic activity: experimental hyperlipidemia (atherogenic load);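 also: serum drawn 18 h after the final dose from rats deprived of food over that interval, groups of 10 animals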
Settings: atherogenic diet, blood, oral last four days, 50 µg/kg

NCCCC(=O)NCCc1c[nH]cn1 [compound XLVII, γ-Aminobutyrylhistamine] was tested, and the Triglycerides was 90, 0±7,7***^A.
